No constants are given. Whether binding was seen depends on the method and setting. Some binding calls cover weakened binding; strength is not graded here.
Key:
[1] = biological target: human ROR1 protein (construct not stated) (human) (UniProt Q01973); test: native western (FIG. 10)
R22 peptide = biological target: T1, R22 peptide; test: peptide binding (FIG. 21)
T1 sequence (peptide): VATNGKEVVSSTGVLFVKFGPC

The chains behind the UniProt entries cited, without tags or fusion partners. Residues count along the entry.
UniProt Q01973, residues 30-406: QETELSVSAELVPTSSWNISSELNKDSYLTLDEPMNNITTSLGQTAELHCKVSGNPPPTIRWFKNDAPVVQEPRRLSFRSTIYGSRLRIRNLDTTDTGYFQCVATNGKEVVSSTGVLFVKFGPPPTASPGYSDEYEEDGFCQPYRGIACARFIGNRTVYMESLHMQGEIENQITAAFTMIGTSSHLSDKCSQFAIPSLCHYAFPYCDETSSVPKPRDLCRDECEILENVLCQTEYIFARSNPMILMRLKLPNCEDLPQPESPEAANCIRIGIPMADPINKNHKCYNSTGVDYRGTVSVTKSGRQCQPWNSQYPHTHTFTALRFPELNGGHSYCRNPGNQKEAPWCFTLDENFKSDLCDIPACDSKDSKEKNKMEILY

[2] = biological target: T2, R22 peptide conjugated to keyhole limpet hemocyanin; test: binding to KLH-conjugated peptide (FIG. 21)
T2 sequence (peptide, C-terminal cysteine conjugated to keyhole limpet hemocyanin (KLH) with MBS): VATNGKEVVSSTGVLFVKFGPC

[3] = biological target: recombinant human ROR1 extracellular domain (human) (UniProt Q01973); test: immunoblot, non-denaturing PAGE and SDS-PAGE (FIG. 11)
[4] = biological target: recombinant human ROR1 extracellular domain (human) (UniProt Q01973); test: immunoblot, non-denaturing PAGE and SDS PAGE (FIG. 11)

Measured: binding

B1: anti-human ROR1 antibody 99961 (antibody, V domains shown)
VH: EIQLQQSGPVLVKPGASVKVSCKASGYAFTAYNIHWVRQSHGKRLEWIGSFDPYDGGSSYNQKFKDKATLTVDKSSTTAYMHLNSLTSEDSAVYYCARGWYYFDYWGHGTTLTVSS
VL: DVQITQSPSYLAASPGETITINCRASKSISKYLAWYQEKPGKTNKLLIYSGSTLQSGIPSRFRGSGSGTDFTLTISSLEPEDFAMYYCQQHDESPYTFGEGTKLEIK
notes: also called Ab9991
binds: all assays above
